The nature of this data set: XPS of immobilized modular peptides on TiO2 substrates and retention in HEPES buffer. It counts as physicochemical. Conditions: high resolution XPS after immobilization. Here is the method: Immobilization of peptides onto TiO2 surface was accomplished by immersing the TiO2 substrates into the corresponding modular peptide solution and incubating it overnight at ambient temperature. The successful immobilization of OGP-Cat and OGP-(Cat)4 onto TiO2-coated substrates were confirmed by XPS. Nitrogen is the element contained only in the modular peptides while not in bare TiO2, as shown in the XPS survey scan of bare TiO2 and OGP-(Cat)4 in FIG. 9A. […] It is noted that the N1s peaks in FIG. 9B are normalized to the highest intensity (O1s) for comparison of the signal to noise ratio.
To quantify the increase in nitrogen due to adsorption of OGP-Cat and OGP-(Cat)4, the nitrogen content (N1s) was normalized with Ti content (Ti2p), and compared with TiO2 substrate after incubation in HEPES buffer overnight (TiO2 as control), as show in Table 2, below.
To study the stability of sequestered modular peptides on targeting surfaces, the modular peptide immobilized TiO2 substrates were immersed in 25 mM HEPES buffer (pH=7.4 at 25° C.) and incubated for different durations. The mean intensity of FITC-labeled OGP-Cat immobilized TiO2 substrates after incubation was quantified to detect the diffusion of FITC-labeled OGP-Cat into surrounding solution. (See FIG. 11). […] Because the N1s signals were assigned to the modular peptides, the decrease of N1s corresponds to the dissociation of adsorbed peptides from TiO2 surface. […] It is believed that the mismatch of retention time for the monovalent ligands may be attributed to the sensitivity difference of XPS and fluorescence microscopy. Nevertheless, the tetravalent ligands OGP-(Cat)4 were clearly present on the TiO2 surface beyond 2 weeks, which is enough to trigger the cascade signaling reactions in adjacent cells.
OGP-(Cat)n and OGP-PEG-(Cat)n (n=1, 2, 4) were dissolved in HEPES buffer at concentrations of 50 μmol/L. Substrates were immersed into the solution (800 μL for 20 mm×20 mm glass slides, 500 μL for 5 mm×5 mm silica wafer) and incubated at ambient temperature overnight. After that, the substrates were rinsed thoroughly with water to wash away the unbounded molecules, dried with nitrogen and subjected to further study.
X-ray photoelectron spectroscopy (XPS) was used to confirm the presence of the OGP peptide on the surface of the substrate by the presence of nitrogen. The XPS measurements were performed on a Kratos AXIS Ultra DLD spectrometer. The X-ray source was monochromated Al Kα, scanning over a binding-energy range of (0 to 700) eV with a dwell time of 100 ms. The analyzer pass energy was 110 eV for the survey spectra and 11 eV for the high-resolution C1s, N1s, and O1s scans. Each spectrum was collected over a 300×700 μm sample area. The results are reported in FIGS. 7, 9A-D, 12, 13, and 17.

From patent US10765748B2, “Composition and methods for tethering bioactive peptides to metal oxide surfaces” (University of Akron, priority 2014, dated 2020) come the findings set out here.

Peptide text beside a SMILES is read from it. * marks the point of attachment. X1 = O=C(CCc1ccc(O)c(O)c1)NCCCC[C@H](NC(=O)CCc1ccc(O)c(O)c1)C(=O)*; Dihydrocaffeoyl = O=C(CCc1ccc(O)c(O)c1)*

As for `O=C(O)CNC(=O)CNC(=O)[C@H](Cc1ccccc1)NC(=O)CNC(=O)[C@H](Cc1ccc(O)cc1)NC(=O)[C@H](CCCCNC(=O)[C@H](CCCCNC(=O)CCc1ccc(O)c(O)c1)NC(=O)CCc1ccc(O)c(O)c1)NC(=O)[C@H](CCCCNC(=O)CCc1ccc(O)c(O)c1)NC(=O)CCc1ccc(O)c(O)c1` [OGP-(Cat)4] (Dihydrocaffeoyl-K(Dihydrocaffeoyl)K(X1)YGFGG-OH), the “atomic ratio C2/C1” value was found to be 0.24, the “atomic ratio C3/C1” value came out at 0.29, the “atomic ratio C3/N” value is given as 0.93 and the “atomic ratio O2/O1” value is on record as 0.39. Moreover, the “atomic ratio O3/O1” value stood at 0.21.
